Common to all, as to conditions: 10 µM; pre-incubation: 30-90 min
Test [1] deals with Danio rerio larvae (5 dpf, TLF). Nature of the test: OMR-Perf (SSMD vs DMSO vehicle); higher = higher than vehicle (e.g. higher dark-flash O-bend response probability, or better optomotor performance).
Test [2] shares this test system. Nature of the test: Prob-Test (SSMD vs DMSO vehicle); higher = higher than vehicle (e.g. higher dark-flash O-bend response probability, or better optomotor performance).
Test [3] has the same test system. Nature of the test: Prob-Naive (SSMD vs DMSO vehicle); higher = higher than vehicle (e.g. higher dark-flash O-bend response probability, or better optomotor performance).
Test [4] shares this test system. Nature of the test: Prob-Train (SSMD vs DMSO vehicle); higher = higher than vehicle (e.g. higher dark-flash O-bend response probability, or better optomotor performance).

This is one part of the list. Repeats in this data set agree poorly, so a single value says little.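 Free-swimming zebrafish larvae were scored for O-bend response probability to dark flashes (naive: first five; training: remaining flashes of four 60-flash blocks; test: later 60-flash block) and for turning toward alternating leftward/rightward LED motion (OMR). Six treated larvae were compared with sixty 0.1% DMSO controls; |SSMD|≥2 defined a hit.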

Turning to `Clc1ccc(C2(c3ccc(-c4cn[nH]c4)cc3)CCNCC2)cc1`, the OMR-Perf in test [1] was -0.331. Further, the Prob-Test in test [2] was -0.179. Further, the Prob-Naive in test [3] was 0.313. In test [4], the Prob-Train was -0.441.
Regarding `O=C(c1ccc(Nc2nccc(-c3cc4ccccc4s3)n2)cc1)N1CCC(N2CCCC2)CC1` [IKK-16 (IKK Inhibitor VII)], the OMR-Perf in test [1] was 0.639. This molecule registered a Prob-Test in test [2] of -1.21. Besides, the Prob-Naive in test [3] was -0.202. The same molecule came in with a Prob-Train in test [4] of -0.374.
The molecule `O=c1c(O)c(-c2ccc(O)cc2)oc2cc(O)cc(O)c12` [Kaempferol] returned an OMR-Perf in test [1] of 0.223. This molecule also came in with a Prob-Test in test [2] of 0.0426. The Prob-Naive in test [3] is 0.0816. Moreover, the Prob-Train in test [4] was -0.782.
In the case of `CCCCCCCN(CC)CCCC(O)c1ccc(NS(C)(=O)=O)cc1.CCCCCCCN(CC)CCCC(O)c1ccc(NS(C)(=O)=O)cc1.O=C(O)/C=C/C(=O)O` (configuration not stated) [Ibutilide Fumarate], in test [1], the OMR-Perf was -0.199. In test [2], this molecule showed a Prob-Test of -0.0192. This molecule also had a Prob-Naive in test [3] of 0.42. The molecule also registered a Prob-Train in test [4] of -0.0863.
For `C=CC(=O)Nc1cccc(Oc2nc(Nc3ccc(N4CCN(C)CC4)cc3OC)ncc2Cl)c1` the same measures were -0.439, -0.337, 0.313 and -0.473.
The molecule `OC[C@@H](O)[C@@H](O)[C@H](O)[C@@H](O)CO` [Sorbitol] came in with an OMR-Perf in test [1] of 0.156. The Prob-Test in test [2] turned out to be 0.115. Also, in test [3], the Prob-Naive is -0.351. The molecule further registered a Prob-Train in test [4] of 0.512.
For the molecule `CC(=O)N[C@@H]1[C@H]([C@H](O)[C@H](O)CO)OC(C(=O)O)=C[C@@H]1NC(=N)N` [Zanamivir], the OMR-Perf in test [1] is -0.182. This molecule also gave a Prob-Test in test [2] of -0.23. The molecule also came in with a Prob-Naive in test [3] of 0. Also, the Prob-Train in test [4] was 0.465.
Taken in the same sequence, the figures for `c1ccc(NCc2ccc(CNc3ccccn3)cc2)nc1` were -0.558, -0.251, 0.134 and -0.352.
Taken in the same sequence, the figures for `COc1ccc(CCN(C)CCCC(C#N)(c2ccc(OC)c(OC)c2)C(C)C)cc1OC.Cl` (configuration not stated) [Verapamil HCl] were -0.102, 0.0101, -0.865 and -1.06.
Turning to `CC1(C)O[C@@H]2[C@@H](CO[C@@]3(COS(N)(=O)=O)OC(C)(C)O[C@@H]23)O1` [Topiramate], the OMR-Perf in test [1] is -0.381. The same molecule showed a Prob-Test in test [2] of -0.411. In test [3], this molecule showed a Prob-Naive of -0.357. In test [4], this molecule returned a Prob-Train of 0.0272.
In turn, `Nc1nc(=O)c2ncn(CCC(CO)CO)c2[nH]1` [Penciclovir] displayed an OMR-Perf in test [1] of 0.253. This molecule gave a Prob-Test in test [2] of -0.0523. In test [3], this molecule displayed a Prob-Naive of 0.573. The Prob-Train in test [4] is 0.23.
In the case of `Cc1ccc2c(=O)c3cccc(CC(=O)O)c3oc2c1C` [DMXAA (Vadimezan)], the OMR-Perf in test [1] is -0.391. In test [2], the Prob-Test came to 0.0487. Besides, the Prob-Naive in test [3] was -0.82. Also, the Prob-Train in test [4] is -0.737.
Take `C=C1[C@H](CO)[C@@H](O)C[C@@H]1n1cnc2c(=O)nc(N)[nH]c21.O` [Entecavir Hydrate]: the OMR-Perf in test [1] came to 0.36. Further, the Prob-Test in test [2] is 0.132. Also, the Prob-Naive in test [3] was -0.533. In addition, in test [4], the Prob-Train was -0.286.
In test [1], `COc1cc(O)c2c(c1)C(=O)c1cc(C)cc(O)c1C2=O` [Rheochrysidin] had an OMR-Perf of -0.425. The molecule further showed a Prob-Test in test [2] of -0.926. In test [3], this molecule showed a Prob-Naive of 0.146. Further, the Prob-Train in test [4] was -0.073.
As to `COc1ccc([C@H]2CNC(=O)C2)cc1OC1CCCC1` [S- (+)-Rolipram], in test [1], the OMR-Perf is -0.73. This molecule also registered a Prob-Test in test [2] of -0.372. For the same molecule, the Prob-Naive in test [3] is -0.533. In test [4], the Prob-Train is -0.637.
Taken in the same sequence, the figures for `COC(=O)[C@H](c1ccccc1Cl)N1CCc2sccc2C1.O=S(=O)(O)O` [Clopidogrel] were -0.66, -1.38, -1.1 and -1.95.
In test [1], `COc1cc2nc(N3CCN(C(=O)C4CCCO4)CC3)nc(N)c2cc1OC.Cl.O.O` (configuration not stated) [Terazosin HCl] came in with an OMR-Perf of -0.362. The molecule also had a Prob-Test in test [2] of 0.201. Moreover, the Prob-Naive in test [3] is 0.394. Further, the Prob-Train in test [4] was -0.15.
The molecule `Cc1c(-c2ccccc2)oc2c(C(=O)OCCN3CCCCC3)cccc2c1=O.Cl` [Flavoxate HCl] showed an OMR-Perf in test [1] of 0.349. Also, in test [2], the Prob-Test came to 0.416. Besides, in test [3], the Prob-Naive is 0.185. Besides, the Prob-Train in test [4] is -0.272.
Molecule `CC(C(=O)O)c1ccc2c(c1)CC(=O)c1ccccc1S2` (configuration not stated) [Zaltoprofen] returned an OMR-Perf in test [1] of 0.00084. Moreover, the Prob-Test in test [2] was -0.0198. Also, the Prob-Naive in test [3] was 0.421. Moreover, in test [4], the Prob-Train is -0.209.
Taken in the same sequence, the figures for `CC(=O)[C@@H]1CC[C@H]2[C@@H]3C=CC4=CC(=O)CC[C@@]4(C)[C@H]3CC[C@]12C` [Dydrogesterone] were -0.584, -1.31, -0.482 and -1.08.
In turn, `CC(C)[C@H]1CC[C@H](C(=O)N[C@H](Cc2ccccc2)C(=O)O)CC1` [Nateglinide] registered an OMR-Perf in test [1] of 0.0403. The Prob-Test in test [2] was -0.194. Further, in test [3], the Prob-Naive was -0.199. For the same molecule, in test [4], the Prob-Train was -0.191.
In test [1], `Nc1nc(Nc2ccc(S(N)(=O)=O)cc2)nn1C(=O)c1c(F)cccc1F` showed an OMR-Perf of 0.235. Further, in test [2], the Prob-Test is -0.249. In test [3], this molecule yielded a Prob-Naive of 0.471. The Prob-Train in test [4] is -0.0892.
In test [1], `CN(CCOc1ccc(CC2SC(=O)NC2=O)cc1)c1ccccn1.O=C(O)/C=C\C(=O)O` (configuration not stated) [Rosiglitazone maleate] had an OMR-Perf of -0.239. This molecule registered a Prob-Test in test [2] of -1.37. Further, in test [3], the Prob-Naive is -0.714. Also, the Prob-Train in test [4] was -1.76.
`CC(C(O)c1ccc(O)cc1)N1CCC(Cc2ccccc2)CC1.CC(C(O)c1ccc(O)cc1)N1CCC(Cc2ccccc2)CC1.O=C(O)[C@H](O)[C@@H](O)C(=O)O` (configuration not stated) [Ifenprodil Tartrate] came in with an OMR-Perf in test [1] of -0.549. In test [2], this molecule had a Prob-Test of -0.58. Besides, the Prob-Naive in test [3] stood at 0.325. The molecule also came in with a Prob-Train in test [4] of -0.692.
For `Cc1nc(C(=O)NCC(=O)O)c(O)c2ccc(Oc3ccccc3)cc12` the same measures were 0.164, -0.0665, 0.489 and 0.335.
In turn, `O=C(/C=C/N1C[C@H]2C[C@@H]1CN2c1ccccn1)c1ccccc1O` showed an OMR-Perf in test [1] of 0.168. In test [2], this molecule returned a Prob-Test of -1.21. Besides, in test [3], the Prob-Naive was -0.519. The molecule also registered a Prob-Train in test [4] of -0.905.
Taken in the same sequence, the figures for `CCCc1nc(C)c2c(=O)[nH]c(-c3cc(S(=O)(=O)N4CCN(CC)CC4)ccc3OCC)nn12.Cl.O.O.O` [Vardenafil HCl Trihydrate] were 0.408, -0.442, -0.538 and -0.779.
For the molecule `CCOC(=O)[C@H](CCc1ccccc1)N[C@H]1CCc2ccccc2N(CC(=O)O)C1=O.Cl` [Benazepril HCl], the OMR-Perf in test [1] was -0.407. In test [2], this molecule yielded a Prob-Test of -0.16. In test [3], this molecule came in with a Prob-Naive of -0.226. The Prob-Train in test [4] is -0.678.

For the origin of these results see the supplement of paper PMC10727501.
